Test results taken from the supplement of paper PMC10849652.
This is one part of the list.

Chains of the proteins cited; added tags and fusions are not shown. Lines headed by an entry give the natural chain unless they say otherwise; changes in a name come on top.
UniProt Q9H0R6: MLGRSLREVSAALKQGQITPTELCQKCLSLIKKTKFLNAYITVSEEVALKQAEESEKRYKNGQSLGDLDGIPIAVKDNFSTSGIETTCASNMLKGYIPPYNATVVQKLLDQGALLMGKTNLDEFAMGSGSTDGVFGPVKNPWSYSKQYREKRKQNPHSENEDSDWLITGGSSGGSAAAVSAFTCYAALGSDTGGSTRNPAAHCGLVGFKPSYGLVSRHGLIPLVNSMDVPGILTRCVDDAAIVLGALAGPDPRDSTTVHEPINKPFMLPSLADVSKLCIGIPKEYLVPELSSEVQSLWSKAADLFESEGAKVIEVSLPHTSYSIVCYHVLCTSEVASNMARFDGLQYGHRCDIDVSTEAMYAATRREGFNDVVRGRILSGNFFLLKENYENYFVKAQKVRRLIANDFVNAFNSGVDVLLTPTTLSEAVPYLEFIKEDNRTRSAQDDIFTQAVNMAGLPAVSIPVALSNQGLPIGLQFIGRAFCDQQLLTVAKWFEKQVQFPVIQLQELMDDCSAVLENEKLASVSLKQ
UniProt Q969Q5: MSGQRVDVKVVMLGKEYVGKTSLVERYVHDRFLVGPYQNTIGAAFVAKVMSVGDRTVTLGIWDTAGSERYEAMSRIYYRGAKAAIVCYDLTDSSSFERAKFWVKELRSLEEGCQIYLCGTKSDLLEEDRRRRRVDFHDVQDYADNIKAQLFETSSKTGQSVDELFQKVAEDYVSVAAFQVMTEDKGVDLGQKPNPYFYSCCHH
UniProt Q9Y6I8: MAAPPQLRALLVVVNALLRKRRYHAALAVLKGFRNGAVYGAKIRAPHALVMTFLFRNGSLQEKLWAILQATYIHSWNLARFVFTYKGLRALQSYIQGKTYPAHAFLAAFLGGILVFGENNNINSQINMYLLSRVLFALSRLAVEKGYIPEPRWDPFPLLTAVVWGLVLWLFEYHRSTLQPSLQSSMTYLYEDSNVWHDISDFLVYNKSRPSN
UniProt Q3YEC7: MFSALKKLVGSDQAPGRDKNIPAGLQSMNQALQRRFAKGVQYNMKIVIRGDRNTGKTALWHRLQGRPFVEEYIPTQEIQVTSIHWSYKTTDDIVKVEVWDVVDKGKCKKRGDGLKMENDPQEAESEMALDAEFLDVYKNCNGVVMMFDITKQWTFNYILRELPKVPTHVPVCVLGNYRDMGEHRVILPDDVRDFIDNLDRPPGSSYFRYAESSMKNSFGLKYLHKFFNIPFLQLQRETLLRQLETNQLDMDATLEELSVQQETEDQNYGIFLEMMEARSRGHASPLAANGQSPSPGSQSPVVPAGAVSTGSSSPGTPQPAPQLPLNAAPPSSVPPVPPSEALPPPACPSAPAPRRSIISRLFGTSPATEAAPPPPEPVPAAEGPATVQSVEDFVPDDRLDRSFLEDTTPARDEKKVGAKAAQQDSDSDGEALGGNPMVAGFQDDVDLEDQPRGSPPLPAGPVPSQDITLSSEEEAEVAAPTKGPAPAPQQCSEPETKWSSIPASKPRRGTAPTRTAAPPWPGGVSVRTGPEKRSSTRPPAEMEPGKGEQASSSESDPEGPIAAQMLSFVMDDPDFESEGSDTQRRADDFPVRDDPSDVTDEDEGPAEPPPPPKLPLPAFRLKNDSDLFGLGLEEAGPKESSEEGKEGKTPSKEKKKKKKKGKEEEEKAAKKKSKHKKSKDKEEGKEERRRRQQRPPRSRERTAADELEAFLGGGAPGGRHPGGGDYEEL
UniProt Q06609, whole entry, looked up: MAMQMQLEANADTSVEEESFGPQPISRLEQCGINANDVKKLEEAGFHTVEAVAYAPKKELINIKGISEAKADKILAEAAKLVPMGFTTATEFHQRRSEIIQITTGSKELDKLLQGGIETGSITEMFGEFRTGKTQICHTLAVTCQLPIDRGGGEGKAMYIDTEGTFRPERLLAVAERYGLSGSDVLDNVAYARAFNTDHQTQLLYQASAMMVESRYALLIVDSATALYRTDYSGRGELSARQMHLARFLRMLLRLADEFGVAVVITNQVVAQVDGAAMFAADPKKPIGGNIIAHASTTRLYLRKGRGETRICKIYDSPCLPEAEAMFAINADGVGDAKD
UniProt O60216: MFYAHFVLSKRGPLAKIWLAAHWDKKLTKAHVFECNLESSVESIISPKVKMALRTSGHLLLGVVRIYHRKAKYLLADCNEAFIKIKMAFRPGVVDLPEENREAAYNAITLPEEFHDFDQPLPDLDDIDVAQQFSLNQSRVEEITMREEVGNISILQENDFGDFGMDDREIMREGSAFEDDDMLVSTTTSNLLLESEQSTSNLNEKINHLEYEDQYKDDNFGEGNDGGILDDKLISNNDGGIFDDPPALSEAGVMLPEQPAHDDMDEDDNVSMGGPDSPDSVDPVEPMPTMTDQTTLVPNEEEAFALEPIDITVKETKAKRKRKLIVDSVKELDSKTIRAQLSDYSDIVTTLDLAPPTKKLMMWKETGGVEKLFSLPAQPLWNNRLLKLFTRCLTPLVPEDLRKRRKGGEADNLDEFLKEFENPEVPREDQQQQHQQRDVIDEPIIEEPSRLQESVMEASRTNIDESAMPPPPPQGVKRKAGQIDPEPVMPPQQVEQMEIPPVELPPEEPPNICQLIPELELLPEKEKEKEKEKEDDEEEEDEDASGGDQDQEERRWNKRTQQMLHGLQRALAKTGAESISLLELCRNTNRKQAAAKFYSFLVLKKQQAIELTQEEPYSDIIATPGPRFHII
UniProt P20338: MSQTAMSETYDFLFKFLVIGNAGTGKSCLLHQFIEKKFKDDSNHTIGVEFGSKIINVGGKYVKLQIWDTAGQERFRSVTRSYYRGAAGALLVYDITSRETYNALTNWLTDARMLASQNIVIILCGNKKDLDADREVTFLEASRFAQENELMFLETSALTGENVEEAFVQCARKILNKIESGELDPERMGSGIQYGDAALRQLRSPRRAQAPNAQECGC
UniProt P11216: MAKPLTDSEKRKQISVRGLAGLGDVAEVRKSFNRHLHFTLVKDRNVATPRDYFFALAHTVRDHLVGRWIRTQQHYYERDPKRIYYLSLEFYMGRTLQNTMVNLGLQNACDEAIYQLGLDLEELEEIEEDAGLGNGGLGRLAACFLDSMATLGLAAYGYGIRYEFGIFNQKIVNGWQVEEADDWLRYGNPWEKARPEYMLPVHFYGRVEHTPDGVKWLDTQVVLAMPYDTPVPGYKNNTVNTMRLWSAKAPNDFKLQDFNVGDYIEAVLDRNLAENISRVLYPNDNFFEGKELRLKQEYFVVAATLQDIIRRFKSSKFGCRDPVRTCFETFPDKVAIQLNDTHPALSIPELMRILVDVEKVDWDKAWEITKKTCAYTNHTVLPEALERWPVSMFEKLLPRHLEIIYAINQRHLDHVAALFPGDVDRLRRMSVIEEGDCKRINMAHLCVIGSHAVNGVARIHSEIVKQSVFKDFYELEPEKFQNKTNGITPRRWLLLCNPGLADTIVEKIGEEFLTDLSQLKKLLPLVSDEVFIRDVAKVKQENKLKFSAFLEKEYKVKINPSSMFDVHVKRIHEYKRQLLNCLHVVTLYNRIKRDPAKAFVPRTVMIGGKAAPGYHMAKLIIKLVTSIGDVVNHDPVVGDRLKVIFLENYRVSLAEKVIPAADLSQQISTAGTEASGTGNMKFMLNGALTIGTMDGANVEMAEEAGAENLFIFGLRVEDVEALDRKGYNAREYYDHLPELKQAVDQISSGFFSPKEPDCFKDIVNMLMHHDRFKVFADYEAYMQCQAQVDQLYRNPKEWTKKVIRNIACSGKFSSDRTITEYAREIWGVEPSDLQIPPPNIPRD
UniProt P62834: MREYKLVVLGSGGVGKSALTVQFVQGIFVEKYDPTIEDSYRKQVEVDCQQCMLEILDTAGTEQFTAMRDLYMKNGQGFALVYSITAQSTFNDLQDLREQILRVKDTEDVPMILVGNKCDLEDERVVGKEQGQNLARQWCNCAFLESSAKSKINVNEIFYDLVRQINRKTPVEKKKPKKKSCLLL
UniProt Q2TAL8: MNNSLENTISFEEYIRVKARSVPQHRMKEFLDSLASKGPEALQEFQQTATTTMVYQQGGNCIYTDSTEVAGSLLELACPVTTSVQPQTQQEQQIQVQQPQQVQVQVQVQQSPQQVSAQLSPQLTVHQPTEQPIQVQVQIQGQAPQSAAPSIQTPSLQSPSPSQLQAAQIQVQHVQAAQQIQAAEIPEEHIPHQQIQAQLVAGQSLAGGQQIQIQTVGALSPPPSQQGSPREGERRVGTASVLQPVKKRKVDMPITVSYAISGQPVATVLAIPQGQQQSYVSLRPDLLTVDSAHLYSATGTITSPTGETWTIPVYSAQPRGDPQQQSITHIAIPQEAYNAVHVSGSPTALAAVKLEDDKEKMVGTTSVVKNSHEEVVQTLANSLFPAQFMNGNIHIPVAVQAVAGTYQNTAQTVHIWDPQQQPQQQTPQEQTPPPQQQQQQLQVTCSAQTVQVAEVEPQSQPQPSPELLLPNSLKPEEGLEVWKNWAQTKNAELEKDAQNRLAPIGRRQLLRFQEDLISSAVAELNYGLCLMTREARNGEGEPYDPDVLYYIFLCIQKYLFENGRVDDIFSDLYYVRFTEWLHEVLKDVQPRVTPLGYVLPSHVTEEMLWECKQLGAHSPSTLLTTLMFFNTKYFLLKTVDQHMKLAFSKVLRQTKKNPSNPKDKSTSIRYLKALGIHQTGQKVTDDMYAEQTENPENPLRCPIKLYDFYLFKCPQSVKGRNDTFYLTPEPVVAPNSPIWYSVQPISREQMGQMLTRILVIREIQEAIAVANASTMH
UniProt Q96QF0: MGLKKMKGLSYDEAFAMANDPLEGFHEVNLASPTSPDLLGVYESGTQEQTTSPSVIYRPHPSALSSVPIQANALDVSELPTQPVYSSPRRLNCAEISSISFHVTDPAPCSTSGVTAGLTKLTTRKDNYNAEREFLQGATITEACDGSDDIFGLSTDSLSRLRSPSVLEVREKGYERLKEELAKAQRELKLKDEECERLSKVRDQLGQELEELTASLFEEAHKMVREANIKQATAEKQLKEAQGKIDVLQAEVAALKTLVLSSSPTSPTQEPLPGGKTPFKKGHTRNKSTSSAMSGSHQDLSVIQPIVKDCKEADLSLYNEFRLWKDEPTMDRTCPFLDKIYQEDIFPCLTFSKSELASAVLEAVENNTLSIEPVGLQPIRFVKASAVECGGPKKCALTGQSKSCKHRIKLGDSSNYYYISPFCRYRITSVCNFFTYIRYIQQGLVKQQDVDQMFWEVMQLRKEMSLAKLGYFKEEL
UniProt Q53S08: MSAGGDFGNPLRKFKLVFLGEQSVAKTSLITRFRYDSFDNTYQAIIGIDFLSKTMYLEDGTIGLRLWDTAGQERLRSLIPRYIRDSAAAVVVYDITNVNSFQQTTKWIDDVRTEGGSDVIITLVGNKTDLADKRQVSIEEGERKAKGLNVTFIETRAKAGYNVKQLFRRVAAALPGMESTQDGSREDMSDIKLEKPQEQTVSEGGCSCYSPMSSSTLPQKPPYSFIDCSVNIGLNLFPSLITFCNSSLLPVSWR
UniProt Q9H0U4: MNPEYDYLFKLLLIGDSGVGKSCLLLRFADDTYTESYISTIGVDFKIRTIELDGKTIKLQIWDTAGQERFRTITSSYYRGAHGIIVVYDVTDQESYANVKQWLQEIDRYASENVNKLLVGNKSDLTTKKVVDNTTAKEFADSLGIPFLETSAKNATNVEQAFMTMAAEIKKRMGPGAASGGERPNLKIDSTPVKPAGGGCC
UniProt P51151: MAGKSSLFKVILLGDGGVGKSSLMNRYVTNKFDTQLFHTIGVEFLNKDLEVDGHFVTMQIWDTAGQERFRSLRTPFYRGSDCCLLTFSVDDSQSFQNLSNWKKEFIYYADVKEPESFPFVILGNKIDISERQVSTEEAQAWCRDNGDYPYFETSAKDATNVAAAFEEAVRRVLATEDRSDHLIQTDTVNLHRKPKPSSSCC
UniProt P61225: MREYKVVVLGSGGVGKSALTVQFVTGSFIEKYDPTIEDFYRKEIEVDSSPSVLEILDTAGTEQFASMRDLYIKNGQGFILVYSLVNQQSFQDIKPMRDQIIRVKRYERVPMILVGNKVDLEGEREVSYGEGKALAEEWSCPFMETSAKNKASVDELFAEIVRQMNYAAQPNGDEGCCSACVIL

How the values were obtained:
Test in all cases: log2 fold change, soluble protein after heating vs DMSO (PISA); higher = thermal stabilisation; K562 lysate, 10 uM; active = over 0.2 and 3.5 SD of the protein, either way, in both replicates (recomputed)
[1] = compound: CN1CC[C@H](c2c(O)cc(O)c3c(=O)cc(-c4ccccc4Cl)oc23)[C@H](O)C1 [alvocidib]
Summary of the method: (§1)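 K562 pellets were dounce-homogenised in PBS pH 7.4 with 1 mM MgCl2, and the crude extract at 1 mg/mL protein was treated with 10 μM compound for 30 min. Aliquots were heated for 3 min across 48°C-58°C, pooled, and brought to 0.5% NP-40 at 4°C; soluble protein was the supernatant after 21,000xg for 90 min. Soluble protein was quantified by TMTpro 16plex LC-MS/MS with channel sums equalised, and reported as log2 fold change in thermal stability against DMSO controls, with values from duplicates.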

[2] = compound: CN1CCc2c(c3ccccc3n2Cc2ccc(C(=O)NO)cc2)C1 [Tubastatin A]
Summary of the method: as §1

[3] = compound: CNC(=O)C1=CC=CC=C1NC2=NC(=NC=C2Cl)NC3=C(C=C(C=C3)N4CCOCC4)OC
Summary of the method: as §1

[4] = compound: CNC(=O)c1ccc(Nc2ncc(C(F)(F)F)c(NCc3nccnc3N(C)S(C)(=O)=O)n2)cc1 [defactinib]
Summary of the method: as §1

[5] = compound: CNc1nc(-c2ccc3c(N)n[nH]c3c2)cc(N2C[C@@H](C(=O)NC3CCCCC3)CC[C@H]2C)n1
Summary of the method: as §1

[6] = compound: COC(=O)N[C@@H](C)CNc1nccc(-c2cn(C(C)C)nc2-c2cc(Cl)cc(NS(C)(=O)=O)c2F)n1 [encorafenib]
Summary of the method: as §1

[7] = compound: COC(=O)[C@H](CCSC)NC(=O)C1=C(C=C(C=C1)NC[C@H](CS)N)C2=CC=CC=C2
Summary of the method: as §1

[8] = compound: COc1cc(Nc2ncc3c(n2)-c2ccc(Cl)cc2C(c2c(F)cccc2OC)=NC3)ccc1C(=O)O [alisertib]
Summary of the method: as §1

[9] = compound: COc1cc2nc(-c3cc(F)ccc3O)nc(N[C@@H]3CNC[C@H]3C(C)(C)O)c2cc1OC
Summary of the method: as §1

[10] = compound: COc1cc2ncnc(Nc3ccc(F)c(Cl)c3)c2cc1OCCCN1CCOCC1 [gefitinib]
Summary of the method: as §1

[11] = compound: CS(=O)(=O)CCNCc1ccc(-c2ccc3ncnc(Nc4ccc(OCc5cccc(F)c5)c(Cl)c4)c3c2)o1 [lapatinib]
Summary of the method: as §1

[12] = compound: CS(=O)(=O)N1CCN(Cc2cc3nc(-c4cccc5[nH]ncc45)nc(N4CCOCC4)c3s2)CC1 [pictilisib]
Summary of the method: as §1

[13] = compound: C[C@@H](Oc1cc(-c2cnn(C3CCNCC3)c2)cnc1N)c1c(Cl)ccc(F)c1Cl [crizotinib]
Summary of the method: as §1

[14] = compound: C[C@H](C1=CC=C(C=C1)C(=O)NC2=C3C=CNC3=NC=C2)N
Summary of the method: as §1

[15] = compound: C[C@H](Nc1ncnc2nc[nH]c12)c1cc2cccc(Cl)c2c(=O)n1-c1ccccc1 [duvelisib]
Summary of the method: as §1

[16] = compound: Cc1cc(Nc2cc(CN3CCOCC3)c3nc(C)c(Cc4ccc(Cl)cc4F)n3n2)n[nH]1 [gandotinib]
Summary of the method: as §1

[17] = compound: Cc1cc(Nc2cc(N3CCN(C)CC3)nc(Sc3ccc(NC(=O)C4CC4)cc3)n2)n[nH]1 [tozasertib]
Summary of the method: as §1

[18] = compound: Cc1ccc(-n2nc(C(C)(C)C)cc2NC(=O)Nc2ccc(OCCN3CCOCC3)c3ccccc23)cc1 [doramapimod]
Summary of the method: as §1

[19] = compound: Cc1ccc(NC(=O)c2ccc(CN3CC[C@H](N(C)C)C3)c(C(F)(F)F)c2)cc1Nc1nccc(-c2cncnc2)n1 [bafetinib]
Summary of the method: as §1

[20] = compound: Cc1cccc(CC(=O)N2CCc3c2ccc(-c2cn(C)c4ncnc(N)c24)c3F)n1
Summary of the method: as §1

Measured: log2 fold change

QRSL1 (UniProt Q9H0R6)
inactive: [1] -0.028 | [2] -0.021 | [3] -0.012 | [4] -0.068 | [5] -0.051 | [6] -0.015 | [7] -0.005 | [8] 0.014 | [9] 0.014 | [10] -0.045 | [11] 0.038 | [12] 0.044 | [13] 0.031 | [14] 0.105 | [15] 0.044 | [16] -0.04 | [17] 0.044 | [18] 0.003 | [19] -0.227 | [20] -0.022

RAB24 (UniProt Q969Q5)
inactive: [1] -0.028 | [2] 0.029 | [3] -0.028 | [4] -0.04 | [5] -0.01 | [6] -0.027 | [7] 0.012 | [8] -0.026 | [9] 0.07 | [10] -0.002 | [11] -0.02 | [12] -0.051 | [13] 0.021 | [14] -0.046 | [15] 0.015 | [16] -0.019 | [17] -0.028 | [18] 0.001 | [19] 0.019 | [20] 0.035

PXMP4 (UniProt Q9Y6I8)
inactive: [1] 0 | [2] -0.015 | [3] 0.012 | [4] -0.028 | [6] 0.033 | [7] 0.092 | [8] -0.039 | [9] -0.009 | [10] -0.039 | [11] -0.071 | [12] 0.066 | [13] -0.29 | [14] -0.068 | [15] -0.112 | [16] -0.221 | [17] -0.034 | [18] 0.238 | [19] -0.148 | [20] 0.194
active: [5] 0.736

RABL6 (UniProt Q3YEC7)
inactive: [1] -0.041 | [2] 0.01 | [3] 0.056 | [4] 0.019 | [5] -0.007 | [6] 0.023 | [7] -0.026 | [8] 0.011 | [9] -0.021 | [10] 0.016 | [11] 0.031 | [12] -0.013 | [13] 0.016 | [14] -0.04 | [15] -0.004 | [16] 0.062 | [17] 0.014 | [18] 0.038 | [19] -0.018 | [20] 0.014

RAD51 (UniProt Q06609)
inactive: [1] -0.025 | [2] -0.076 | [3] -0.01 | [4] -0.098 | [5] -0.022 | [6] 0.071 | [7] 0.132 | [8] -0.018 | [9] 0.001 | [10] -0.056 | [11] 0.005 | [12] -0.09 | [13] -0.01 | [14] -0.142 | [15] 0.026 | [16] 0.002 | [17] -0.051 | [18] -0.025 | [19] -0.061 | [20] 0.013

RAD21 (UniProt O60216)
inactive: [1] -0.006 | [2] -0.008 | [3] 0.007 | [4] 0.021 | [5] -0.027 | [6] -0.017 | [7] -0.016 | [8] -0.012 | [9] 0 | [10] 0.042 | [11] 0.027 | [12] -0.005 | [13] 0.024 | [14] 0.01 | [15] 0.001 | [16] 0.041 | [17] -0.015 | [18] 0.005 | [19] 0.012 | [20] 0.001

RAB4A (UniProt P20338)
inactive: [1] 0.017 | [2] 0.005 | [3] 0.02 | [4] -0.012 | [5] -0.018 | [6] 0.028 | [7] -0.054 | [8] -0.027 | [9] 0.011 | [10] 0.035 | [11] -0.003 | [12] -0.032 | [13] 0.036 | [14] 0.022 | [15] 0 | [16] -0.062 | [17] 0.02 | [18] 0.036 | [19] -0.014 | [20] -0.072

PYGB (UniProt P11216)
inactive: [1] 0.084 | [2] -0.003 | [3] -0.005 | [4] -0.006 | [5] -0.084 | [6] -0.001 | [7] -0.018 | [8] -0.011 | [9] -0.005 | [10] 0.016 | [11] -0.015 | [12] 0.008 | [13] -0.018 | [14] 0.048 | [15] -0.019 | [16] -0.077 | [17] 0.085 | [18] 0 | [19] -0.019 | [20] -0.069

RAP1A (UniProt P62834)
inactive: [1] -0.009 | [2] 0.048 | [3] 0.012 | [4] -0.007 | [5] 0.024 | [6] -0.01 | [7] -0.031 | [8] -0.04 | [9] 0.024 | [10] -0.058 | [11] -0.046 | [12] -0.012 | [13] 0.058 | [14] -0.092 | [15] 0.007 | [16] -0.005 | [17] 0.033 | [18] -0.043 | [19] 0.028 | [20] 0.016

QRICH1 (UniProt Q2TAL8)
inactive: [1] 0.022 | [2] -0.103 | [3] -0.008 | [4] 0.058 | [5] -0.024 | [6] 0.038 | [7] 0.096 | [8] 0.019 | [9] -0.033 | [10] 0.005 | [11] -0.008 | [12] -0.071 | [13] -0.052 | [14] -0.033 | [15] -0.021 | [16] -0.053 | [17] 0 | [18] 0 | [19] -0.071 | [20] 0.045

RAB3IP (UniProt Q96QF0)
inactive: [1] -0.076 | [2] -0.139 | [3] 0.01 | [4] -0.075 | [5] 0.098 | [6] 0.048 | [7] -0.078 | [8] -0.095 | [9] 0.076 | [10] 0.1 | [11] -0.055 | [12] 0 | [13] 0.02 | [14] 0.005 | [15] 0.094 | [16] -0.052 | [17] -0.066 | [18] 0.01 | [19] -0.112 | [20] 0.029

RAB6D (UniProt Q53S08)
inactive: [1] -0.029 | [2] 0.078 | [3] 0.024 | [4] 0.077 | [5] 0.087 | [6] 0.023 | [7] -0.034 | [8] -0.149 | [9] 0.062 | [10] 0.027 | [11] 0.005 | [12] -0.008 | [13] -0.036 | [14] -0.058 | [15] 0 | [16] 0.189 | [17] 0.015 | [18] -0.001 | [19] -0.136 | [20] 0.154

RAB1B (UniProt Q9H0U4)
inactive: [1] -0.146 | [2] 0.007 | [3] -0.016 | [4] -0.037 | [5] 0.01 | [6] 0.065 | [7] -0.058 | [8] 0.047 | [9] 0.003 | [10] 0.064 | [11] 0.021 | [12] 0.053 | [13] 0.031 | [15] 0.033 | [16] 0.156 | [17] 0.011 | [18] -0.052 | [19] -0.038
active: [14] -0.35 | [20] 0.242

RAC2 (UniProt P15153)
inactive: [1] 0.047 | [2] -0.086 | [3] 0.082 | [4] 0.007 | [5] 0.06 | [6] -0.022 | [7] -0.001 | [8] 0.051 | [9] 0.056 | [10] 0.016 | [11] -0.057 | [12] 0.016 | [13] -0.018 | [14] -0.05 | [15] -0.026 | [16] -0.025 | [17] -0.062 | [18] -0.014 | [19] -0.042 | [20] 0.031

RAB9A (UniProt P51151)
inactive: [1] 0.063 | [2] 0.03 | [3] -0.02 | [4] 0.037 | [5] 0.029 | [6] 0.02 | [7] -0.032 | [8] 0 | [9] 0.076 | [10] 0.066 | [11] -0.045 | [12] -0.032 | [13] 0.048 | [14] 0.009 | [15] 0.018 | [16] -0.047 | [17] -0.009 | [18] 0.005 | [19] -0.025 | [20] -0.059

RAP2B (UniProt P61225)
inactive: [1] 0.014 | [2] 0.07 | [3] 0.024 | [4] 0.075 | [5] -0.019 | [6] 0.019 | [7] -0.013 | [8] -0.02 | [9] 0.021 | [10] -0.002 | [11] -0.033 | [12] 0.015 | [13] 0 | [14] -0.031 | [15] 0.001 | [16] 0.005 | [17] -0.024 | [18] -0.03 | [19] 0.017 | [20] 0.032

Random excerpt: two entries already listed
RAD21 (UniProt O60216)
inactive: [1] -0.006 | [2] -0.008 | [3] 0.007 | [4] 0.021 | [5] -0.027 | [6] -0.017 | [7] -0.016 | [8] -0.012 | [9] 0 | [10] 0.042 | [11] 0.027 | [12] -0.005 | [13] 0.024 | [14] 0.01 | [15] 0.001 | [16] 0.041 | [17] -0.015 | [18] 0.005 | [19] 0.012 | [20] 0.001

RAP1A (UniProt P62834)
inactive: [1] -0.009 | [2] 0.048 | [3] 0.012 | [4] -0.007 | [5] 0.024 | [6] -0.01 | [7] -0.031 | [8] -0.04 | [9] 0.024 | [10] -0.058 | [11] -0.046 | [12] -0.012 | [13] 0.058 | [14] -0.092 | [15] 0.007 | [16] -0.005 | [17] 0.033 | [18] -0.043 | [19] 0.028 | [20] 0.016
